37 compounds from PubChem BioAssay AID2685 (National Center for Advancing Translational Sciences (NCATS), 2010) can be followed below.

Structures are written as SMILES. Some of the results follow. The main result of the screen is listed elsewhere. These columns were measured beside it and carry no call. The list favours compounds with an active or inconclusive main result. Words in brackets tell the shape of the fitted curve; partial curves, single points and poor fits give uncertain potencies.

This assay in a line: qHTS Assay for Lipid Storage Modulators in Drosophila S3 Cells.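 On cell number change: cells counted by Cell Tracker Red CMTPX staining in the red channel.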 The settings on record: BODIPY lipid droplet fluorescence, 18-24 h; for cell number change: measured here: cell count max response, cells fed with added oleic acid. In short, it runs like this:
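Drosophila S3 cells got compounds at several concentrations plus oleic acid (400 uM solution). Laser-scanning cytometry with 488 nm excitation read lipid droplets at 500-530 nm and cells at 575-640 nm. Percent activity was relative to 20 uM Triacsin C.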

[1] abbreviates: measured here: lipid fluorescence (Fed channel) AC50, cells fed with added oleic acid.
Setting [2] is: measured here: cell number channel AC50, cells fed with added oleic acid.

The AC50 is the concentration at which the activity in the assay is half-maximal. The low end stands for activity at low concentration, the high end for activity only at high concentration. `O=C(OCc1nc2ccccc2[nH]1)C1CCCCC1`: the concentration at half-maximal activity (AC50) under setting [1] was 18.4 µM [rising, single point].
Take `Oc1c(CNc2ccccc2)cc(COCc2ccccc2)c2cccnc12`: the cell number change was -14.2%. Further, under setting [1], the AC50 was 9.2 µM [falling, partial curve].
`CCOC(=O)N1CCN(C(=O)CSc2nnc(-c3cccs3)o2)CC1`: the cell number change is -12.3%. Also, the AC50 under setting [1] was 0.00461 µM [rising, full curve, poor fit].
In the case of `CC(=O)Nc1ccc(OCc2ccc(S(=O)(=O)Cc3ccccc3)cc2)cc1`, the cell number change is -2.23%. Moreover, the AC50 under setting [1] was 0.00517 µM [falling, full curve, poor fit].
For the compound `COc1ccc(NC(=O)c2cccnc2Sc2ccccc2)c(OC)c1`, the cell number change was -7.09%. For the same compound, the AC50 under setting [1] was 13 µM [rising, partial curve].
Consider `CCCCCc1nc(N)c(C#N)c(-c2ccco2)c1CCCC`, for which the cell number change came out at 12.2%. Also, the AC50 under setting [1] is 11.6 µM [rising, partial curve].
Take `c1ccc(OCCCCN2CCCCC2)cc1`: the cell number change turned out to be 31.6%. The AC50 under setting [1] is 20.6 µM [rising, single point].
As for `CCSc1nnc(-c2sc3nnc(-c4ccccc4)c(-c4ccccc4)c3c2N)o1`, the cell number change is -13.4%. In addition, the AC50 under setting [1] is 4.11 µM [falling, partial curve].
With `COc1ccc(-c2cc3ccccc3cn2)cc1`, the cell number change was -22.9%. For the same compound, the AC50 under setting [1] is 1.16 µM [rising, partial curve].
As for `O=C(O)c1ccccc1C(=O)N(Cc1ccccc1)Cc1ccccc1`, the cell number change was -56.7%. Moreover, the AC50 under setting [2] is 7.31 µM [falling, partial curve]. The AC50 under setting [1] was 5.8 µM [falling, full curve].
Regarding `Cc1ccc(C(=O)NN2C(=O)/C(=C/c3cn(C)c4ccccc34)SC2=S)cc1`, the cell number change came out at 95.4%. The AC50 under setting [2] is 20.6 µM [rising, partial curve]. Also, the AC50 under setting [1] is 25.9 µM [rising, single point].
With `CCN(Cc1ccccc1)S(=O)(=O)c1ccc(C(=O)N(CCCN(C)C)c2nc3cc(C)cc(C)c3s2)cc1`, the cell number change is -80.3%. Also, under setting [2], the AC50 is 18.4 µM [falling, single point].
Consider `O=[N+]([O-])c1ccc(-c2csc3[n+]2CCS3)cc1`, for which the cell number change was -24%. Under setting [2], the AC50 is 1.03 µM [falling, full curve, poor fit]. The AC50 under setting [1] is 0.92 µM [falling, full curve].
Consider `Oc1cc(Nc2ccc(N3CCCCC3)cc2)cc2cccnc12`, for which the cell number change is -35.3%. Besides, the AC50 under setting [2] was 0.00461 µM [falling, full curve, poor fit]. The concentration at half-maximal activity (AC50) under setting [1] is 0.651 µM [falling, full curve, poor fit].
Consider `FC(F)(F)c1cc(-c2ccccc2)nc(NC2CCCC2)n1`, for which the cell number change is -35.7%. Moreover, the half-maximal activity concentration (AC50) under setting [2] is 29.1 µM [falling, single point]. The AC50 under setting [1] was 16.4 µM [falling, partial curve, poor fit].
For the compound `COc1ccc(C2=NOC(Cn3nc(C(=O)NCc4cccc(C(F)(F)F)c4)cc3-c3ccccc3)C2)cc1` (stereo not given), the cell number change came out at 15%. Besides, the AC50 under setting [1] is 3.26 µM [rising, single point].
As for `CN(C(=O)COC(=O)c1cccnc1Nc1ccccc1F)C1CCS(=O)(=O)C1` (stereo not given), the cell number change was -14.2%. Further, the AC50 under setting [1] is 29.1 µM [falling, single point].
As to `CCOC(=O)C(C)Sc1nnc(-c2ccccc2O)n1-c1ccc(C)cc1` (stereo not given), the cell number change is -16.3%. Also, the concentration at half-maximal activity (AC50) under setting [1] was 2.59 µM [rising, single point].
Take `c1ccc(CN2CCN(C3=Nc4cccc5cccc3c45)CC2)cc1`: the cell number change is 42.1%. In addition, the AC50 under setting [2] is 29.1 µM [rising, single point]. Under setting [1], the AC50 was 4.61 µM [rising, full curve].
Take `CCC(OC(=O)c1nsc(Cl)c1Cl)C(=O)NCCc1ccccc1` (stereo not given): the cell number change was -13.5%. Moreover, under setting [1], the AC50 is 0.184 µM [rising, full curve, poor fit].
In the case of `COCCNC(=O)COc1ccc(N(C)S(=O)(=O)c2ccc3ccccc3c2)cc1`, the cell number change amounted to 14.1%. Moreover, the AC50 under setting [1] is 2.31 µM [rising, partial curve].
As to `CCC(CC)NC(=O)COC(=O)CCC(=O)c1ccc(Cl)cc1`, the cell number change is -33.8%.
Regarding `Cc1ccc(SCC(=O)Nc2nnc(C(C)(C)C)s2)cc1`, the cell number change is 15.8%. For the same compound, the AC50 under setting [2] is 0.00517 µM [rising, full curve, poor fit].
For `CCC(=O)Nc1nnc(-c2ccc(OC)cc2)o1`, the cell number change was found to be 55.1%. Under setting [2], the AC50 is 9.2 µM [rising, partial curve]. Also, the concentration at half-maximal activity (AC50) under setting [1] was 9.2 µM [rising, partial curve].
Turning to `CCOC(=O)C1=C(O)/C(=C/c2ccc(OCC(=O)O)c(OCC)c2)SC1=Nc1ccc(OC)cc1`, the cell number change was -16.7%. In addition, the concentration at half-maximal activity (AC50) under setting [1] is 2.59 µM [falling, full curve, poor fit].
Regarding `COc1ccccc1N1CCN(C(=O)/C=C/c2ccc3c(c2)OCO3)CC1`, the cell number change was determined as 29.7%.
For `CCOc1ccc(NS(=O)(=O)c2ccc(C(=O)NCC(c3ccco3)N3CCCC3)cc2)cc1` (stereo not given), the cell number change was -30.7%. Further, the half-maximal activity concentration (AC50) under setting [2] is 29.1 µM [falling, single point].
For the compound `Cc1ccc(/C(N)=N/OC(=O)c2cccc(Cn3cc(C(F)(F)F)ccc3=O)c2)cc1`, the cell number change is -26.2%. For the same compound, the half-maximal activity concentration (AC50) under setting [1] was 29.1 µM [falling, single point].
Take `Cc1cc(N/N=C/c2ccc(Cl)cc2Cl)nc(NCc2ccccc2)n1`: the cell number change was -82.9%. The AC50 under setting [1] was 11.6 µM [falling, partial curve].
`Cc1ccc(OCCC(=O)N(CCC(C)C)c2c(N)n(Cc3ccccc3)c(=O)[nH]c2=O)cc1`: the cell number change was determined as 13.7%.
As to `C/C(=N\NC(=O)c1cc2ccccc2cc1O)c1ccc2c(c1)OCO2`, the cell number change is -30.5%. Further, the AC50 under setting [2] was 1.03 µM [falling, full curve, poor fit]. For the same compound, under setting [1], the AC50 was 8.2 µM [falling, single point].
Take `COc1ccc(-c2nn(-c3ccccc3)cc2C2CC(c3cccs3)=NN2C(=O)CCC(=O)O)cc1` (stereo not given): the cell number change was -1.36%.
As for `CCOC(=O)CC(C#N)c1c[nH]c2ccccc12` (stereo not given), under setting [1], the AC50 was 0.651 µM [falling, partial curve, poor fit].
For `O=C(CN1CCN(S(=O)(=O)N2CCCCCC2)CC1)Nc1cc(Cl)ccc1Cl`, the cell number change came out at 6.41%.
In the case of `O=C(c1cccc(Oc2ccccc2)c1)N1CCOCC1`, the cell number change was determined as 29.8%. Under setting [1], the AC50 is 4.61 µM [rising, partial curve].
As for `COCCNC(=O)c1ccccc1NC(=O)c1ccccc1N(C)S(=O)(=O)c1ccccc1`, the cell number change amounted to 10.8%. Further, under setting [1], the AC50 is 29.1 µM [rising, single point].
As to `CCOc1ccc(N(CC(=O)NCCc2ccccc2)C(=O)CCC(=O)Nc2cc(C)ccn2)cc1`, the cell number change worked out at 2.56%. The AC50 under setting [1] was 6.51 µM [rising, partial curve].
